# Test results taken from patent US20060292634A1.
# No constants are given. Whether binding was seen depends on the method and setting. Some entries that bind do so weakly or less than the wild type.
# Molecular target: chicken lysozyme (chicken) (UniProt P00698)
# Test: ELISA
row,Binder,binding
1,"iMab122 (designed binder, not shown: small tags and cut ends) NVKLVEKGGNFVENDDDLKLTCRASGRTFSSRTMGWFRQAPNDDSTNVATIRWNGGSTYYTNYGDSVKERFDIRVDQASNTVTLSMDDLQPEDSAEYNCAGTDIGDGWSGRYDYRGQGTDVTVSS",binds
2,iMab701 (designed binder) MASTITCEASGYTIGPACVAFDTTLGNNMGTYSAPLTSTTLGVATVTCAADSTIYASYYECGHGLSTGGYGYAAFSVPSVTVNFTA,binds
3,iMab1200 (designed binder) HGLPMEKRGNFIVGQNCSLTCPASGYTIGPQCVFNCYFNSALAFSTENMGEWTLDMVFSDAGIYTMCAADSTIYASYYECGHGLSTGGYGYNPVSLGSFVVDSP,binds
